# The list shows only some results of the screen, not a fair sample: it gathers tests that were run many times, whatever their T/C, doses with no T/C, and many T/C values between a quarter and a half above the control. Other doses and runs of a compound stand elsewhere. T/C is the treated group as % of the vehicle group. Schedule codes are those of the source, taken here to give the interval after Q, in days (D) or hours (H), and the number of doses after X. Some T/C values are followed by the survivors on the day toxicity was checked, most often the fifth; where none is given, no animal had died by that day. Some T/C values are negative: the treated tumours shrank. Some entries hold several experiments; the values are given in rising order. Some entries give survivors of the animals treated and no T/C: the source files T/C as zero there, which appears to mark a toxic dose or a test without result, not a measured value. Survivors were counted at the toxicity check, usually on the fifth day, unless a day is given; later deaths do not show.
# System: nude mice, HT29 intrarenal xenograft, tumor weight T/C
# Test: NCI In Vivo Anticancer Drug Screen. Data for tumor model HT29;CX-1 Human Adenocarcinoma (MER+) (intrarenal inoculation) in NU/NU Swiss (nude) mice
# Conditions: T/C endpoint: mean tumor weight change, higher T/C = larger tumour
# How it was run: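 Endpoint measured as tumor size or survival; ratio reported is treated group over vehicle controls.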
# [1] = dose: 400.0 mg/kg/injection, schedule: Q01DX010 (sc), vehicle: saline with Tween-80
# [2] = dose: 1200.0 mg/kg/injection, schedule: Q04DX004 (sc), vehicle: saline
smiles,measurement,setting,value
CCCCCCCCCCCCCCCCCCOCC(COP(=O)([O-])OCC[N+](C)(C)C)OC (configuration not stated),survivor count,"dose: 300.0 mg/kg/injection, schedule: Q04DX004 (sc), vehicle: saline",0 of 6 on day 15
CCCC(=O)OCc1cc(=O)n(C)c2c3c4c(cc12)c(C)cc(=O)n4CO3,survivor count,"dose: 400.0 mg/kg/injection, schedule: Q01DX010 (sc), vehicle: Klucel (hydroxypropylcellulose) (HPC)",3 of 5 on day 11
same,survivor count,"dose: 800.0 mg/kg/injection, schedule: Q01DX010 (sc), vehicle: Klucel (hydroxypropylcellulose) (HPC)",3 of 6 on day 11
same,survivor count,"dose: 1600.0 mg/kg/injection, schedule: Q01DX010 (sc), vehicle: Klucel (hydroxypropylcellulose) (HPC)",1 of 6 on day 11
O=[N+]([O-])/C=C\c1ccc2c(c1)OCO2,T/C,"dose: 200.0 mg/kg/injection, schedule: Q01DX010 (sc), vehicle: Klucel (hydroxypropylcellulose) (HPC), evaluated on day 11",134 % of control
CN(C1=NS(=O)(=O)N=C(N(C)c2ccccc2)O1)c1ccccc1,T/C,"dose: 900.0 mg/kg/injection, schedule: Q04DX004 (sc), vehicle: Klucel (hydroxypropylcellulose) (HPC), evaluated on day 15",148 % of control
O=C(O)CCCCCCCC(=O)O,T/C,"dose: 300.0 mg/kg/injection, schedule: Q04DX004 (sc), vehicle: distilled water + Tween-80, evaluated on day 15",137 % of control
same,T/C,"dose: 1200.0 mg/kg/injection, schedule: Q04DX004 (sc), vehicle: distilled water + Tween-80, evaluated on day 15",130 % of control
c1cnc2ncncc2n1,survivor count,"dose: 200.0 mg/kg/injection, schedule: Q01DX010 (sc), vehicle: saline with Tween-80",0 of 3 on day 20
O=C1C2(Cl)C3(Cl)C4(Cl)C(Cl)(Cl)C5(Cl)[C@]3(Cl)C1(Cl)[C@]5(Cl)C24Cl (some centres not stated),survivor count,"dose: 150.0 mg/kg/injection, schedule: Q04DX004 (sc), vehicle: Klucel (hydroxypropylcellulose) (HPC)",3 of 6 on day 15
same,survivor count,"dose: 300.0 mg/kg/injection, schedule: Q04DX004 (sc), vehicle: Klucel (hydroxypropylcellulose) (HPC)",0 of 6 on day 15
same,survivor count,"dose: 600.0 mg/kg/injection, schedule: Q04DX004 (sc), vehicle: Klucel (hydroxypropylcellulose) (HPC)",0 of 6 on day 15
COC(=O)[C@@]12OC[C@]34[C@H]([C@@H](O)[C@@H]1O)[C@@]1(C)CC(=O)C(O)=C(C)[C@@H]1C[C@H]3OC(=O)[C@H](OC(=O)/C=C(\C)C(C)C)[C@@H]24,survivor count,"dose: 2.0 mg/kg/injection, schedule: Q04DX004 (sc), vehicle: saline with Tween-80",0 of 6 on day 15
same,survivor count,"dose: 4.0 mg/kg/injection, schedule: Q04DX004 (sc), vehicle: saline with Tween-80",0 of 6 on day 15
CCN(CC)CCCC(C)Nc1c2ccc(Cl)cc2nc2ccc(OC)cc12 (configuration not stated),survivor count,[1],0 of 3 on day 11
CC1=NN(c2cccc(S(=O)(=O)O)c2)C(=O)C1N=Nc1cc(Cl)cc(S(=O)(=O)O)c1O.CC1=NN(c2cccc(S(=O)(=O)O)c2)C(=O)C1N=Nc1cc(Cl)cc(S(=O)(=O)O)c1O.[Cr] (configuration not stated),survivor count,[2],0 of 6 on day 15
O=C1C(NCCO)=C(N2CC2)C(=O)C(NCCO)=C1N1CC1,survivor count,"dose: 4.0 mg/kg/injection, schedule: Q04DX004 (sc), vehicle: saline",3 of 6 on day 15
same,survivor count,"dose: 6.0 mg/kg/injection, schedule: Q04DX004 (sc), vehicle: saline",0 of 6 on day 15
same,survivor count,"dose: 12.0 mg/kg/injection, schedule: Q04DX004 (sc), vehicle: saline",0 of 6 on day 15
COC1/C=C\C=C(/C)C(=O)NC2=CC(=O)C=C(C2=O)C(OC)C(C)CC(OC)C(OC)C(C)/C=C(/C)C1OC(N)=O (configuration not stated),survivor count,"dose: 4.5 mg/kg/injection, schedule: Q04DX004 (sc), vehicle: Klucel (hydroxypropylcellulose) (HPC)",2 of 6 on day 15 and 3 of 6 on day 15
same,survivor count,"dose: 9.0 mg/kg/injection, schedule: Q04DX004 (sc), vehicle: Klucel (hydroxypropylcellulose) (HPC)",0 of 6 on day 15 and 1 of 6 on day 15
same,survivor count,"dose: 18.0 mg/kg/injection, schedule: Q04DX004 (sc), vehicle: Klucel (hydroxypropylcellulose) (HPC)",0 of 6 on day 15
same,survivor count,"dose: 36.0 mg/kg/injection, schedule: Q04DX004 (sc), vehicle: Klucel (hydroxypropylcellulose) (HPC)",0 of 6 on day 15
NC1=NC(=O)N2CC12 (configuration not stated),survivor count,"dose: 400.0 mg/kg/injection, schedule: Q04DX004 (sc), vehicle: saline",0 of 6 on day 15
CC(C)[C@]12O[C@H]1[C@@H]1O[C@]13[C@]1(O[C@H]1C[C@H]1C4=C(C(=O)OC4)[C@@H](O)C[C@@]13C)[C@@H]2O,survivor count,"dose: 0.4 mg/kg/injection, schedule: Q01DX010 (sc), vehicle: saline + alcohol",1 of 3 on day 11
same,survivor count,"dose: 0.8 mg/kg/injection, schedule: Q01DX010 (sc), vehicle: saline + alcohol",0 of 3 on day 11
COc1ccc2nc3cc(Cl)ccc3c(NCCNCCNCCNc3c4ccc(Cl)cc4nc4ccc(OC)cc34)c2c1,T/C,"dose: 200.0 mg/kg/injection, schedule: Q01DX010 (sc), vehicle: saline with Tween-80, evaluated on day 11",132 % of control
Cc1ccccc1SSc1ccccc1C,T/C,"dose: 400.0 mg/kg/injection, schedule: Q01DX010 (sc), vehicle: saline with Tween-80, evaluated on day 20",146 % of control
same,T/C,"dose: 800.0 mg/kg/injection, schedule: Q01DX010 (sc), vehicle: saline with Tween-80, evaluated on day 20",147 % of control
CN=C(N)N/N=C(\c1ccccc1)c1ccc(Br)cc1,survivor count,"dose: 100.0 mg/kg/injection, schedule: Q04DX004 (sc), vehicle: saline with Tween-80","0 of 6 on day 15, 1 of 5 on day 15, 1 of 4 on day 15"
CC1=C(C)C(=O)O[C@@H]([C@](C)(O)[C@]2(O)CC[C@@]3(O)[C@@H]4C[C@H]5O[C@]56CC=CC(=O)[C@]6(C)[C@H]4CC[C@]23C)C1,T/C,"dose: 225.0 mg/kg/injection, schedule: Q04DX004 (sc), vehicle: suspension in saline, evaluated on day 15",134 % of control
O=Cc1c(O)c2ccccc2[nH]c1=O,survivor count,"dose: 2400.0 mg/kg/injection, schedule: Q04DX004 (sc), vehicle: saline with Tween-80",0 of 6 on day 15
CC1=C(/C=C/C(C)=C/C=C/C(C)=C/C(=O)O)C(C)(C)CCC1,T/C,"dose: 100.0 mg/kg/injection, schedule: Q01DX010 (sc), vehicle: saline with Tween-80, evaluated on day 11",132 % of control [2 of 2 alive on day 11]
Cc1ccc(S(=O)(=O)NC(=S)S)cc1,T/C,"dose: 400.0 mg/kg/injection, schedule: Q01DX010 (sc), vehicle: saline with Tween-80, evaluated on day 11",139 % of control
same,survivor count,"dose: 800.0 mg/kg/injection, schedule: Q01DX010 (sc), vehicle: saline with Tween-80",0 of 3 on day 11
Oc1c(Cl)cc(Cl)cc1C1N2CCCCC2C2c3cccn3-c3ccccc3N21 (configuration not stated),T/C,"dose: 150.0 mg/kg/injection, schedule: Q04DX004 (sc), vehicle: Klucel (hydroxypropylcellulose) (HPC), evaluated on day 15","-17 [5 of 6 alive on day 15], 55, 78, 132 % of control"
same,T/C,"dose: 300.0 mg/kg/injection, schedule: Q04DX004 (sc), vehicle: Klucel (hydroxypropylcellulose) (HPC), evaluated on day 15","16, 70, 114, 154 % of control"
same,T/C,"dose: 600.0 mg/kg/injection, schedule: Q04DX004 (sc), vehicle: Klucel (hydroxypropylcellulose) (HPC), evaluated on day 15","26, 34 [5 of 6 alive on day 15], 69, 77 % of control"
O=C(O[Si](Cc1ccccc1)(Cc1ccccc1)Cc1ccccc1)N(CCCl)CCCl,T/C,"dose: 400.0 mg/kg/injection, schedule: Q04DX004 (sc), vehicle: saline with Tween-80, evaluated on day 15",133 % of control [5 of 6 alive on day 15]
same,survivor count,"dose: 800.0 mg/kg/injection, schedule: Q04DX004 (sc), vehicle: saline with Tween-80",0 of 6 on day 15
O=CC=O,survivor count,[1],0 of 3 on day 11
Nc1nc2c(C(=O)N3CCCC3)nnn2c2ccccc12,survivor count,"dose: 150.0 mg/kg/injection, schedule: Q04DX004 (sc), vehicle: saline with Tween-80",3 of 6 on day 15
same,survivor count,"dose: 300.0 mg/kg/injection, schedule: Q04DX004 (sc), vehicle: saline with Tween-80",0 of 6 on day 15
same,survivor count,"dose: 600.0 mg/kg/injection, schedule: Q04DX004 (sc), vehicle: saline with Tween-80",0 of 6 on day 15
CCN(CC)CCOCCO,T/C,"dose: 600.0 mg/kg/injection, schedule: Q04DX004 (sc), vehicle: saline, evaluated on day 15",141 % of control
same,survivor count,[2],2 of 6 on day 15
CC1=CC(=Nc2ccc(N(CCCl)CCCl)cc2)C=C(C)C1=O,survivor count,"dose: 1200.0 mg/kg/injection, schedule: Q04DX004 (sc), vehicle: Klucel (hydroxypropylcellulose) (HPC)",3 of 6 on day 15
